{
  "source": "PubChem BioAssay AID588497",
  "about": "(NMMLSC, 2011)",
  "note": "Screen size: about 360,000 compounds; about 780 (0.22%) were called active. Inconclusive means that the source gave no clear call. Such entries were picked first, then a sample of the others. Rule as the data show it: active = inhibition above about 35% (passing the limit was not always enough); inconclusive = no clear call, values can overlap the other calls.",
  "data": [
    {"system": "Botulinum neurotoxin type F light chain protease (Clostridium botulinum)", "assay": "BoNT/F light chain protease inhibitors, primary screen, biochemical, flow cytometry, MLPCN library (AID 588497); also: plate controls were buffer without enzyme for full effect and enzyme alone for no effect", "details": "Multiplex microsphere protease cleavage assay, at 10 µM, active compounds read high", "values": [
      {"compound": "CCOC(=O)N1CCN(S(=O)(=O)c2ccc(Br)s2)CC1", "inhibition": "inconclusive: -2.1%"},
      {"compound": "CCS(=O)(=O)c1cc([N+](=O)[O-])c(Sc2ccccc2N)s1", "inhibition": "inconclusive: -23.8%"},
      {"compound": "COC(=O)C1=CN(Cc2ccc(OC)c(OC)c2)C=C(C(=O)OC)C1c1ccc(F)cc1", "inhibition": "inactive: 13.7%"},
      {"compound": "COc1ccc(/C=C2\\SC(=S)N(CCC(=O)Nc3ccc(C(=O)O)cc3)C2=O)cc1", "inhibition": "inconclusive: 10.9%"},
      {"compound": "FC(F)Sc1nc2ccccc2[nH]1", "inhibition": "inconclusive: -57.1%"},
      {"compound": "CCNS(=O)(=O)c1cc(-c2nnc(OC)c3ccccc23)ccc1C", "inhibition": "inconclusive: -8.5%"},
      {"compound": "ON=C(CCc1ccccc1)c1ccccc1", "inhibition": "inactive: 4.5%"},
      {"compound": "Cc1ccccc1N1CCN(CC(=O)Nc2nc(C)c(C(=O)N(C)C)s2)CC1", "inhibition": "inconclusive: -15.8%"},
      {"compound": "Cc1onc(-c2ccccc2)c1C(=O)NC(CC(=O)O)c1ccc(OC(C)C)cc1", "note": "(stereo unspecified)", "inhibition": "inconclusive: 9.2%"},
      {"compound": "CN1CCN2c3ccccc3CC3(C(=O)N(C)C(=O)N(C)C3=O)C2C1", "note": "(stereo unspecified)", "inhibition": "inconclusive: 138%"},
      {"compound": "Cc1ccc2c(c1)C1(C)C(C(C)(C)N2C=O)C1(Cl)Cl", "note": "(stereo unspecified)", "inhibition": "inconclusive: -21.3%"},
      {"compound": "CC1(C)Oc2ccc3ccc(=O)oc3c2/C(=C/NNC(N)=S)C1=O", "inhibition": "inactive: 8.9%"},
      {"compound": "CCc1cc(=O)[nH]c(SCC(=O)N2CCC(Cc3ccccc3)CC2)n1", "inhibition": "inactive: 0.5%"},
      {"compound": "Cc1nc(NC(=O)c2cc3ccccc3o2)sc1C", "inhibition": "inactive: -5.1%"},
      {"compound": "COC(=O)C1=C(C)N(CC2CCCO2)C(=O)C1", "note": "(stereo unspecified)", "inhibition": "inconclusive: 5.5%"},
      {"compound": "O=C(CCSCCc1ccccn1)Nc1ccc(Br)cn1", "inhibition": "inactive: 0.1%"},
      {"compound": "O=[N+]([O-])c1ccc2c(c1)c1ccccc1n2CCO", "inhibition": "inconclusive: 31.3%"},
      {"compound": "O=C(COC(=O)c1cc(-c2ccco2)nc2ccccc12)NCc1ccccc1", "inhibition": "inconclusive: 9.2%"},
      {"compound": "CN1CCN(S(=O)(=O)c2cccc(C(=O)Oc3cccc(Br)c3)c2)CC1", "inhibition": "inconclusive: 6%"},
      {"compound": "COc1ccc(Cl)cc1C(=O)O/N=C(\\N)c1ccncc1", "inhibition": "inconclusive: -93%"},
      {"compound": "Cc1cc(OCC(=O)Nc2c(C(C)C)cccc2C(C)C)no1", "inhibition": "inactive: -7.4%"},
      {"compound": "CC(=O)Oc1ccc(N2C(=O)C3C(C2=O)C(C(=O)c2ccc(Cl)cc2)N2CCCC32)cc1", "note": "(stereo unspecified)", "inhibition": "inconclusive: -57.4%"},
      {"compound": "Cc1ccc(S(=O)(=O)NCCCCCC(N)=O)cc1", "inhibition": "inconclusive: 10.1%"},
      {"compound": "O=C(NCCN1CCCCC1)Nc1cccc(F)c1", "inhibition": "inactive: 13.7%"},
      {"compound": "CC(C)(C)c1ccc(OCCCC(=O)NNC(=O)c2ccccc2O)cc1", "inhibition": "inconclusive: 4.3%"},
      {"compound": "O=C(Nc1ccc(-c2csnn2)cc1)C1CC1", "inhibition": "inconclusive: 73.3%"}
    ]}
  ]
}
